Where “and” joins values, the source holds several entries; their conditions need not be identical. Equal values may be shown once. The list shows a part of the results. This data set is noisy: repeats of one test often differ as much as different tests do.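 HEK293T cells were given each compound shortly before transfection with a reporter in which red mCherry is followed by the SARS-CoV-2 frameshift element and then GFP in the −1 frame, so GFP appears only after frameshifting.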
Tested on: SARS-CoV-2 -1 PRF reporter mCherry-FSE-GFP(-1)
Assay: percent effect, decrease of GFP/mCherry ratio (-1 PRF reporter) relative to controls; higher = stronger frameshift inhibition
Settings: 10 µM; 24 h; HEK293T

Compound	percent effect
COc1ccc2[nH]c([S@@+]([O-])Cc3ncc(C)c(OC)c3C)nc2c1 [esomeprazole]	-1.77% and -9%
CCS(=O)(=O)CCn1c([N+](=O)[O-])cnc1C [tinidazole]	-5.15% and -1.86%
CC(=O)OCC(=O)[C@@]12OC3(CCCC3)O[C@@H]1C[C@H]1[C@@H]3CCC4=CC(=O)C=C[C@]4(C)[C@@]3(F)[C@@H](O)C[C@@]12C [amcinonide]	-3.1% and -1.38%
COc1ccc2c(c1)c(CC(=O)OCC(=O)O)c(C)n2C(=O)c1ccc(Cl)cc1 [acemetacin]	-0.484% and -0.472%
C[C@H]1COc2c(N3CCN(C)CC3)c(F)cc3c(=O)c(C(=O)O)cn1c23 [levofloxacin]	-0.732% and 0.904% and 9.46%
NC[C@H]1O[C@H](O[C@H]2[C@H](O)[C@@H](O[C@H]3O[C@H](CO)[C@@H](O)[C@H](N)[C@H]3O)[C@H](N)C[C@@H]2N)[C@H](N)C[C@@H]1O [tobramycin]	-2.42% and -4.9%
COc1ccc(CN2CCN(C(c3ccc(F)cc3)c3ccc(F)cc3)CC2)c(OC)c1OC [lomerizine]	-2.41% and -8.53%
CSc1ccc2c(c1)N(CCC1CCCCN1C)c1ccccc1S2 (stereo not given) [thioridazine]	-4.31% and 1.1%
COc1c(C)c2c(c(O)c1C/C=C(\C)CCC(=O)O)C(=O)OC2 [mycophenolic acid]	-9.2% and -13.7%
C#C[C@]1(O)CC[C@H]2[C@@H]3CCC4=CC(=O)CC[C@@H]4[C@H]3CC[C@@]21C [norethisterone]	-1.78% and -2.47%
O=P(O)(O)C(O)(Cc1cccnc1)P(=O)(O)O [risedronic acid]	-1.43% and -4.07%
OCCN1CCN(CCCN2c3ccccc3Sc3ccc(C(F)(F)F)cc32)CC1 [fluphenazine]	-2.2% and -3.44%
CC[C@H](C)C(=O)O[C@H]1C[C@@H](C)C=C2C=C[C@H](C)[C@H](CC[C@@H]3C[C@@H](O)CC(=O)O3)[C@H]21 [lovastatin]	0.296% and -0.713%
C=C1/C(=C\C=C2/CCC[C@]3(C)[C@@H]([C@H](C)CCCC(C)C)CC[C@@H]23)C[C@@H](O)C[C@@H]1O [alfacalcidol]	-4.04% and -0.617%
O=C(O)Cc1ccccc1Nc1c(Cl)cccc1Cl [diclofenac]	-4.41% and -0.763%
CNCCCC12CCC(c3ccccc31)c1ccccc12 [maprotiline]	1.57% and -8.44%
CC(COc1ccccc1)NC(C)C(O)c1ccc(O)cc1 (stereo not given) [isoxsuprine]	-1.58% and -14.8%
CN(C)CCCN1c2ccccc2CCc2ccccc21 [imipramine]	3.29% and -5.95%

Compound	percent effect
COC(=O)C1=C(C)NC(C)=C(C(=O)OCCN2CCN(C(c3ccccc3)c3ccccc3)CC2)C1c1cccc([N+](=O)[O-])c1 (stereo not given) [manidipine]	1.42% and -1.84%
CNNCc1ccc(C(=O)NC(C)C)cc1 [procarbazine]	-1.35% and 14.6%
C[C@]12CCC(=O)C=C1CC[C@@H]1[C@@H]2[C@@H](O)C[C@@]2(C)[C@H]1CC[C@]2(O)C(=O)CO [hydrocortisone]	-5.28% and -1.87% and -10.6%
O=C(c1ccc(F)cc1)C1CCN(CCn2c(=O)[nH]c3ccccc3c2=O)CC1 [ketanserin]	-0.887% and -4.09%
COc1ccccc1OCCNCC(O)COc1cccc2[nH]c3ccccc3c12 (stereo not given) [carvedilol]	-2.76% and -0.682% and -0.737%
CCn1cc(C(=O)O)c(=O)c2cc(F)c(N3CCNCC3)nc21 [enoxacin]	-4.46% and 4.23%
CCOC(=O)[C@H](CCc1ccccc1)N[C@@H](C)C(=O)N1[C@H](C(=O)O)C[C@@H]2CCC[C@@H]21 [ramipril]	-0.129% and 1.76%
Nc1ccc(O)c(C(=O)O)c1 [mesalazine]	-4.68% and 0.743%
COC1=C(OC)C(=O)C(CCCCCCCCCCO)=C(C)C1=O [idebenone]	4.97% and -1.13%
Cc1[nH]c(=O)c(C#N)cc1-c1ccncc1 [milrinone]	-2.2% and 0.442%
C#C[C@]1(O)CC[C@H]2[C@@H]3CCc4cc(OC5CCCC5)ccc4[C@H]3CC[C@@]21C [quinestrol]	-16.9% and -5.12%
Cc1ccc(C(=O)c2ccc(CC(=O)O)n2C)cc1 [tolmetin]	-1.37% and 0.949%
O=C1c2c(O)ccc(O)c2C(=O)c2c(NCCNCCO)ccc(NCCNCCO)c21 [mitoxantrone]	-3.7% and -11.9%
CCOC(=O)C1=C(C)NC(C)=C(C(=O)OC)C1c1cccc(Cl)c1Cl (stereo not given) [felodipine]	-1.46% and 1.57%
CN(C)CCOc1ccc(/C(=C(/CCCl)c2ccccc2)c2ccccc2)cc1 [toremifene]	-3.45% and -1.72% and -0.0728%
O=c1[nH]c(=O)n([C@H]2C[C@H](O)[C@@H](CO)O2)cc1F [floxuridine]	-1.38% and -6.8%
C[C@]12CC[C@@H]3c4ccc(O)cc4CC[C@H]3[C@@H]1CCC2=O [estrone]	1.32% and -1.2%

Part of the list above, with bars between the fields.
Compound | percent effect
CCn1cc(C(=O)O)c(=O)c2cc(F)c(N3CCNCC3)nc21 [enoxacin] | -4.46% and 4.23%
O=c1[nH]c(=O)n([C@H]2C[C@H](O)[C@@H](CO)O2)cc1F [floxuridine] | -1.38% and -6.8%

Source: the supplement of paper PMC8256030
